# According to the supplement of paper PMC8728848:
# This is one part of the list.
# What was measured:
# Assay in all cases: glycan array binding signal (z-score within array); higher = stronger binding
# Details in all cases: glycan notation: IUPAC condensed, linker removed
# [1] = target: GlcNAc(b1-2)Gal(b1-3)GalNAc
# Procedure, shortened: (§1)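 The Consortium for Functional Glycomics database supplied 3228 glycan arrays, of which those lacking an available protein sequence were dropped. The binding signal, a within-array Z-score, was averaged across arrays of the same protein sequence and across linkers. Negative scores can be read as non-binding.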
# [2] = target: GlcNAc(b1-2)Man(a1-3)[GlcNAc(b1-2)Man(a1-6)]Man(b1-4)GlcNAc(b1-4)GlcNAc
# Procedure, shortened: as §1
# GlcNAc(b1-3)Gal = target: GlcNAc(b1-3)Gal
# Procedure, shortened: as §1
# [3] = target: GlcNAc(b1-3)Gal(b1-3)GalNAc
# Procedure, shortened: as §1
# GlcNAc(b1-3)Gal(b1-4)Glc = target: GlcNAc(b1-3)Gal(b1-4)Glc
# Procedure, shortened: as §1
# [4] = target: GlcNAc(b1-3)Gal(b1-4)GlcNAc
# Procedure, shortened: as §1
# [5] = target: GlcNAc(b1-3)Gal(b1-4)GlcNAc(b1-3)Gal(b1-4)GlcNAc
# Procedure, shortened: as §1
# GlcNAc(b1-3)GalNAc = target: GlcNAc(b1-3)GalNAc
# Procedure, shortened: as §1
# [6] = target: GlcNAc(b1-3)[GlcNAc(b1-4)][GlcNAc(b1-6)]GlcNAc
# Procedure, shortened: as §1
# [7] = target: GlcNAc(b1-3)[GlcNAc(b1-6)]Gal(b1-4)GlcNAc
# Procedure, shortened: as §1
# [8] = target: GlcNAc(b1-3)[GlcNAc(b1-6)]GalNAc
# Procedure, shortened: as §1
# [9] = target: GlcNAc(b1-4)Gal(b1-4)GlcNAc
# Procedure, shortened: as §1
# [10] = target: GlcNAc(b1-4)GlcNAc(b1-4)GlcNAc
# Procedure, shortened: as §1
# [11] = target: GlcNAc(b1-4)GlcNAc(b1-4)GlcNAc(b1-4)GlcNAc(b1-4)GlcNAc
# Procedure, shortened: as §1
# [12] = target: GlcNAc(b1-4)GlcNAc(b1-4)GlcNAc(b1-4)GlcNAc(b1-4)GlcNAc(b1-4)GlcNAc
# Procedure, shortened: as §1
# [13] = target: GlcNAc(b1-4)[GlcNAc(b1-6)]GalNAc
# Procedure, shortened: as §1
# [14] = target: GlcNAc(b1-6)Gal(b1-4)GlcNAc
# Procedure, shortened: as §1
# GlcNAc(b1-6)GalNAc = target: GlcNAc(b1-6)GalNAc
# Procedure, shortened: as §1
# Kdn(a2-3)Gal(b1-3)GlcNAc = target: Kdn(a2-3)Gal(b1-3)GlcNAc
# Procedure, shortened: as §1
# Kdn(a2-3)Gal(b1-4)GlcNAc = target: Kdn(a2-3)Gal(b1-4)GlcNAc
# Procedure, shortened: as §1
# [15] = target: Man(a1-2)Man(a1-2)Man(a1-3)Man
# Procedure, shortened: as §1
# [16] = target: Man(a1-2)Man(a1-2)Man(a1-6)[Man(a1-3)]Man
# Procedure, shortened: as §1
# Man(a1-2)Man(a1-3)Man = target: Man(a1-2)Man(a1-3)Man
# Procedure, shortened: as §1
# [17] = target: Man(a1-2)Man(a1-3)[Man(a1-2)Man(a1-6)]Man
# Procedure, shortened: as §1
# [18] = target: Man(a1-2)Man(a1-3)[Man(a1-2)Man(a1-6)]Man(a1-6)[Man(a1-2)Man(a1-2)Man(a1-3)]Man(b1-4)GlcNAc(b1-4)GlcNAc
# Procedure, shortened: as §1
# [19] = target: Man(a1-2)Man(a1-3)[Man(a1-2)Man(a1-6)]Man(a1-6)[Man(a1-3)[Man(a1-6)]Man(a1-6)]Man(b1-4)GlcNAc(b1-4)GlcNAc
# Procedure, shortened: as §1
# [20] = target: Man(a1-2)Man(a1-3)[Man(a1-6)]Man(a1-6)[Man(a1-2)Man(a1-3)]Man(b1-4)GlcNAc(b1-4)GlcNAc
# Procedure, shortened: as §1
# [21] = target: Man(a1-2)Man(a1-6)[Man(a1-3)]Man(a1-6)[Man(a1-2)Man(a1-2)Man(a1-3)]Man(b1-4)GlcNAc(b1-4)GlcNAc
# Procedure, shortened: as §1
# Man(a1-3)[Man(a1-6)]Man = target: Man(a1-3)[Man(a1-6)]Man
# Procedure, shortened: as §1
# [22] = target: Man(a1-3)[Man(a1-6)]Man(a1-6)[Man(a1-3)]Man(b1-4)GlcNAc(b1-4)GlcNAc
# Procedure, shortened: as §1
binder,measurement,setting,value
Fap1 (Streptococcus parasanguis) (protein) KATSKGTEEKQDSVRENLDKMISEAEVLNDMAARKLITLDAEQQLELMKSLVATQSQLEATKNLIGDPNATVADLQIAYTTLGNNTQALGNELIKLNPNGQIYAVLNNTEASRAATLRSTTTGTKTTFTISDFSNGGTQYYWAGGNANNLKNPISSISAVYDSATGKISWTVEYDPTTILKSPALKTLKTYTGIYIDTSSDSKLSTPTNVLIDGAATNPVTNFYGNGSKGIEYVSKGTTKGVTKHTITFDTAFSGRANDLADLEIKMLAATTLSDPHFYEDGSKGNYGRYNGQTAPYVIANDSGTAIGGYQVSGVNADSIPSDTT,glycan array binding signal (z-score),[1],-0.517
same,glycan array binding signal (z-score),[2],-0.049
same,glycan array binding signal (z-score),GlcNAc(b1-3)Gal,-0.549
same,glycan array binding signal (z-score),[3],2.08
same,glycan array binding signal (z-score),GlcNAc(b1-3)Gal(b1-4)Glc,-0.837
same,glycan array binding signal (z-score),[4],-0.431
same,glycan array binding signal (z-score),[5],0.652
same,glycan array binding signal (z-score),GlcNAc(b1-3)GalNAc,-0.326
same,glycan array binding signal (z-score),[6],-0.251
same,glycan array binding signal (z-score),[7],-0.818
same,glycan array binding signal (z-score),[8],-0.872
same,glycan array binding signal (z-score),[9],0.396
same,glycan array binding signal (z-score),[10],-0.91
same,glycan array binding signal (z-score),[11],-1
same,glycan array binding signal (z-score),[12],-0.71
same,glycan array binding signal (z-score),[13],-0.634
same,glycan array binding signal (z-score),[14],-0.299
same,glycan array binding signal (z-score),GlcNAc(b1-6)GalNAc,-0.345
same,glycan array binding signal (z-score),Kdn(a2-3)Gal(b1-3)GlcNAc,-0.673
same,glycan array binding signal (z-score),Kdn(a2-3)Gal(b1-4)GlcNAc,-0.249
same,glycan array binding signal (z-score),[15],-0.294
same,glycan array binding signal (z-score),[16],-0.611
same,glycan array binding signal (z-score),Man(a1-2)Man(a1-3)Man,0.189
same,glycan array binding signal (z-score),[17],-0.447
same,glycan array binding signal (z-score),[18],-0.857
same,glycan array binding signal (z-score),[19],-0.873
same,glycan array binding signal (z-score),[20],0.055
same,glycan array binding signal (z-score),[21],-0.826
same,glycan array binding signal (z-score),Man(a1-3)[Man(a1-6)]Man,0.624
same,glycan array binding signal (z-score),[22],-0.797

# An excerpt of these results, as tab-separated lines:
binder	measurement	setting	value
Fap1 (Streptococcus parasanguis) (protein) KATSKGTEEKQDSVRENLDKMISEAEVLNDMAARKLITLDAEQQLELMKSLVATQSQLEATKNLIGDPNATVADLQIAYTTLGNNTQALGNELIKLNPNGQIYAVLNNTEASRAATLRSTTTGTKTTFTISDFSNGGTQYYWAGGNANNLKNPISSISAVYDSATGKISWTVEYDPTTILKSPALKTLKTYTGIYIDTSSDSKLSTPTNVLIDGAATNPVTNFYGNGSKGIEYVSKGTTKGVTKHTITFDTAFSGRANDLADLEIKMLAATTLSDPHFYEDGSKGNYGRYNGQTAPYVIANDSGTAIGGYQVSGVNADSIPSDTT	glycan array binding signal (z-score)	[12]	-0.71
same	glycan array binding signal (z-score)	[13]	-0.634
